Experimental data reported in paper PMC12822431, “A Pan‐TE Map Reveals the Important Role of Transposable Elements in Gene Expression and Phenotypic Diversity in 2,311 Rapeseed Accessions”.
Construct, isoform or probe ends are uncertain for at least one entry. The comparison behind a weaker result is the experiment's own reference, which may not be listed here. Where a protein sequence is shown, tags need not be part of it.

Target: T1, BnaA01G0374400ZS (MYB TF, ortholog of AT3G11280) (Brassica napus (ZS11)) (UniProt A0A078HEX6)
T1 sequence (looked up, limits assumed): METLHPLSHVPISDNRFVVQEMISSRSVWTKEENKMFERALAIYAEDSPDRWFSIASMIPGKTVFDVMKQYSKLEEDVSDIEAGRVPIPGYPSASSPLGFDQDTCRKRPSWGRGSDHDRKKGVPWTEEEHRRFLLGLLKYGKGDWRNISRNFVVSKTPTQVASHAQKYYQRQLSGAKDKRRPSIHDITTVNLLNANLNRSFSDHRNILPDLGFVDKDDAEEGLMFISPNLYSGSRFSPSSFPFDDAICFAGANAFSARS
Test: EMSA
Conditions: Beyotime GS009 EMSA kit, room temperature, 20 min, 5% native polyacrylamide gel, chemiluminescent detection; salt and pH not stated; recombinant protein; protein details: His; label: biotin

Binding result, binds more weakly:
ACGAGGGTGTTACAACGAAACAATTT (double strand) [S2 probe (R5)]
ACGTGTGCTTTACATCGAATCCATT (double strand) [S3 probe (R6)]
TTTTTTTCTTTATATCGAATCCATT (double strand) [M1 (S3 with AC nucleotides mutated)]
